Results are given in words; binding and its absence hold for the method and conditions named.
Target: T1, FITC-labeled hCG-specific binding peptide aptamer FITC-…
T1 sequence (peptide, fluorescein isothiocyanate (FITC) on the N-terminus): PPLRINRHILTR
Assay: other fluorescence titration; 50 nM FITC-peptide first adsorbed on graphene oxide (2 ug/mL, 10 min, fluorescence quenched); protein added, 15 min at room temperature, PBS 20 mM pH 7.2; recovery of fluorescence (excitation 470 nm, emission 518 nm) on release of the peptide from GO; both purified

binding: no binding (tested: 10 ng/mL)
Substance: Thrombin (enzyme)
